The test system of series [1] is Smad3/Smad4-containing nuclear complex (Homo sapiens). Description: competition with a labelled probe. The following applies: protein in an extract, protein details: TGFβ-induced HepG2 nuclear extract.
Series [2] shares this test system. Description: EMSA. The settings on record: TGFβ-induced complex; supershifted by anti-Smad3 and anti-Smad4; protein in an extract; protein details: TGFβ-induced HepG2 nuclear extract; label: 33P. For orientation: Mobility shift assays separate free from complexed probe on a gel.
Series [3] deals with Smad3 +GAG insertion of Smad2 GAG (Ser21-Gly30 of Smad2) (Homo sapiens) (UniProt P84022). Briefly: EMSA. The following applies: protein translated in vitro; label: 33P.
For series [4], the target named is Smad2 ΔGAG deletion Ser21-Gly30 (Homo sapiens) (UniProt Q15796). Description: EMSA. The settings on record: protein translated in vitro; label: 33P.
The target of series [5] is GST-Smad1 ΔMH2 MH2 domain deleted (UniProt Q15797). Briefly: EMSA. The settings on record: purified recombinant protein; protein details: GST, E. coli; label: 33P.
The target in series [6] is Smad3 +GAG +TID insertion of Smad2 GAG and TID (Homo sapiens) (UniProt P84022). Description: EMSA. The following applies: protein translated in vitro; label: 33P.
The target in series [7] is GST-Smad3 full length (UniProt P84022). Briefly: EMSA. The settings on record: GST fusion; non-GST Smad3 binds; purified recombinant protein; protein details: GST, E. coli; label: 33P.
Series [8] deals with Smad2 ΔTID deletion Ser79-Thr108 (Homo sapiens) (UniProt Q15796). Description: EMSA. The settings on record: protein translated in vitro; label: 33P.
The target in series [9] is GST-Smad2 ΔMH2 MH2 domain deleted (UniProt Q15796). Description: EMSA. The following applies: purified recombinant protein; protein details: GST, E. coli; label: 33P.
In series [10] the target is Smad3 +TID insertion of Smad2 TID (Ser79-Thr108 of Smad2) (Homo sapiens) (UniProt P84022). Briefly: EMSA. The following applies: protein translated in vitro; label: 33P.
Series [11] has as its target Smad2 ΔGAG ΔTID deletion Ser21-Gly30 and Ser79-Thr108 (Homo sapiens) (UniProt Q15796). Briefly: EMSA. The settings on record: protein translated in vitro; label: 33P.
Series [12] deals with GST-Smad4 ΔMH2 MH2 domain deleted (UniProt Q13485). Description: EMSA. The settings on record: direct and specific; 4 mM MgCl2, 37 C; purified recombinant protein; protein details: GST, E. coli; label: 33P.
Series [13] deals with GST-Smad3 ΔMH2 MH2 domain deleted (UniProt P84022). Briefly: EMSA. The settings on record: direct and specific; 4 mM MgCl2, 37 C; purified recombinant protein; protein details: GST, E. coli; label: 33P.
[14] abbreviates: excess cold competitor does not displace.

Chains of the proteins cited; added tags and fusions are not shown. Where a name states a change or a piece, a line headed by the entry shows the natural chain unless it says otherwise. Chains listed by the source or under a name are the forms on record and can include a tag or linker.
UniProt P84022: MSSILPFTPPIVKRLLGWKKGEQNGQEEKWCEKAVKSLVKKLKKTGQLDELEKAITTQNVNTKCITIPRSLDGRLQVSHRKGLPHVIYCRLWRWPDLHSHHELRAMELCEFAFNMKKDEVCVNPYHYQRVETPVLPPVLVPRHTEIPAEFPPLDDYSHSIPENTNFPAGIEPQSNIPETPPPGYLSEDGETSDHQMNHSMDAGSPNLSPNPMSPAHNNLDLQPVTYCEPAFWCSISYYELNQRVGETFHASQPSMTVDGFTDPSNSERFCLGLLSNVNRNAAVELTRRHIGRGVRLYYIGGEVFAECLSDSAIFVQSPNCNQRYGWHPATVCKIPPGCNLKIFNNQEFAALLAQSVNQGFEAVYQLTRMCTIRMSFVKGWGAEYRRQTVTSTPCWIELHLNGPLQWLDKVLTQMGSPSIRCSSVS
UniProt Q15796: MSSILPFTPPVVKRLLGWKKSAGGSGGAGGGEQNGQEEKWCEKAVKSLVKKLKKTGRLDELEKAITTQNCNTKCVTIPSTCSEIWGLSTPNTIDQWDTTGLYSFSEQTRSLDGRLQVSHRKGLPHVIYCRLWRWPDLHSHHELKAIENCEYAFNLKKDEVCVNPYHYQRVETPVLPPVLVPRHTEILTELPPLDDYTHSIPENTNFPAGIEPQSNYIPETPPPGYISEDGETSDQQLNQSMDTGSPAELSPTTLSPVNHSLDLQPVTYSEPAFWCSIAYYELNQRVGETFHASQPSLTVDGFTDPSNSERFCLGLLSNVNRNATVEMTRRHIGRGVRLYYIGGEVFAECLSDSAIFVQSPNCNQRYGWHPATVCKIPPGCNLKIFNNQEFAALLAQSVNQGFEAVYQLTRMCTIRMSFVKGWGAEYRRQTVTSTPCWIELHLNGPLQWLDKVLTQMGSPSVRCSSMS
UniProt Q15797: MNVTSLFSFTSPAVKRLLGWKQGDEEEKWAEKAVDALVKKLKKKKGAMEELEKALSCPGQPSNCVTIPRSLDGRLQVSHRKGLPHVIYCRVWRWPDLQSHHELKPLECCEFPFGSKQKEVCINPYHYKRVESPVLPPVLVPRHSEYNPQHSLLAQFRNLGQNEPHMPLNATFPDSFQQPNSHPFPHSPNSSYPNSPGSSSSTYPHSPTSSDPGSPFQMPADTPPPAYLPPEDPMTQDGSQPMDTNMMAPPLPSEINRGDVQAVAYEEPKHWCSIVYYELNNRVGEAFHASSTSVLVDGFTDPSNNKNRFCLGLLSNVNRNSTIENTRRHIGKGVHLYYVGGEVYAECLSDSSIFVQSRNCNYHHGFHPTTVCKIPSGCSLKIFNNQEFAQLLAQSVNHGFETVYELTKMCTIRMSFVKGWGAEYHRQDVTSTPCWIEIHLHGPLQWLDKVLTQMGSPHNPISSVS
UniProt Q13485: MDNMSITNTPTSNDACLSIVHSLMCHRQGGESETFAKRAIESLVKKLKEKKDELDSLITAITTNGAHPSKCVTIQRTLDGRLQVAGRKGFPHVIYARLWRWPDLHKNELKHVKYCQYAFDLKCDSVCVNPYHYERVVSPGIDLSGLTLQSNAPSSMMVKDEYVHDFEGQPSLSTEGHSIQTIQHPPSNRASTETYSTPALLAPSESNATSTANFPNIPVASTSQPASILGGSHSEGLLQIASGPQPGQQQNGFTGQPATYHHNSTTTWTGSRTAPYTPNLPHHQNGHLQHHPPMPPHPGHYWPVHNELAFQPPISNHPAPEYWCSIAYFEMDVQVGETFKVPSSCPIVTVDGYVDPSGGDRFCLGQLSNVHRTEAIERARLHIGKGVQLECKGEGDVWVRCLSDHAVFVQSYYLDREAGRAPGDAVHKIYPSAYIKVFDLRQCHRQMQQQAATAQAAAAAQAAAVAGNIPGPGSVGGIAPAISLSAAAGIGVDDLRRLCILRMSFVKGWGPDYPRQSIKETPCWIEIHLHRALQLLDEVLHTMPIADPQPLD
Smad3/Smad4-containing nuclear complex (Homo sapiens), one chain, as listed by the source, chain 2 of 2: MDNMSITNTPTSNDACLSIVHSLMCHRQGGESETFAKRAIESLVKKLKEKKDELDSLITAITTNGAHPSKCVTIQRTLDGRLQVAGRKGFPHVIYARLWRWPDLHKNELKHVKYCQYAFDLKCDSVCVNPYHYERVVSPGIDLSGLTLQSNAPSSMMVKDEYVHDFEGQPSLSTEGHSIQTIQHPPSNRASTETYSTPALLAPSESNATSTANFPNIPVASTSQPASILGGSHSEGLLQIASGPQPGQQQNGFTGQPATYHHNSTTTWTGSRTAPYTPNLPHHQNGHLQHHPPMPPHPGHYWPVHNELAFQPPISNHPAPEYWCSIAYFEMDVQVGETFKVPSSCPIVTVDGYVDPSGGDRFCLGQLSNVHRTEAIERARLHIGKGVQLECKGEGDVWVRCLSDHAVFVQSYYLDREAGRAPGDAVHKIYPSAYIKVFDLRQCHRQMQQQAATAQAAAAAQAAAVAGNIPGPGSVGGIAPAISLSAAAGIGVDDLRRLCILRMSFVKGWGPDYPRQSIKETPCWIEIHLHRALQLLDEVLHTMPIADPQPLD
Smad3/Smad4-containing nuclear complex (Homo sapiens), one chain, as listed by the source, chain 1 of 2: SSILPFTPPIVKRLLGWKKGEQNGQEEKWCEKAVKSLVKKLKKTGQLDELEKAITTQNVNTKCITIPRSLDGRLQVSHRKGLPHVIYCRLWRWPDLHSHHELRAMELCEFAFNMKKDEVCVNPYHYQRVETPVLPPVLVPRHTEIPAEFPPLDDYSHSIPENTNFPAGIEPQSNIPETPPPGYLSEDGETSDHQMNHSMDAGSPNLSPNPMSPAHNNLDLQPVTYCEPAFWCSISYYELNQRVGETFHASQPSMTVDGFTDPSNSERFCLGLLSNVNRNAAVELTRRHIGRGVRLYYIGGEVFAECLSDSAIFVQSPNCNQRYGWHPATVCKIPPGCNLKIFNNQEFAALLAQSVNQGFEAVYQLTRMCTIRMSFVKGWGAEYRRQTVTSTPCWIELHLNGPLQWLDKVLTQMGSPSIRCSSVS

For some assays here: No signal at the amounts used counts as a negative. For some assays here: Where cells or extracts were used, other partners may take part. For some assays here: Construct, isoform or probe ends are uncertain for at least one entry.

For “CCGGGATGACTCAGC (double strand) [AP-1 site]”, the binding result in series [1] (setting [14]) was “no binding”.

On to “CCGGTTTGGATTGAAGCCAATATG (double strand) [NF-1 site]”, for which the binding result in series [1] (setting [14]) is “no binding”.

For the sequence “TCGAGAGCCAGACAAGGAGCCAGACAAGGAGCCAGACAC (double strand) [CAGA probe]”, the binding result in series [2] is “binds”; in series [3], “binds”; in series [4] it was “no binding”; in series [5], “no binding”; in series [6] it was “no binding”; in series [7], “no binding”. Moreover, the binding result is on record as “binds” in series [8]; “no binding” in [9]; “no binding” in series [10]; “binds” in series [11]; “binds” in [12]; “binds” in series [13].

As for “TCGAGAGCTACATAAAAAGCTACATATTTAGCTACATAC (double strand) [CAGA mutant oligonucleotide]”, the binding result in series [1] (excess cold competitor (50 or 100 molar) does not displace, variant of CAGA probe) was “no binding”.

Turning to “TCGAGGACAGGGGGCGGAGCCTC (double strand) [Sp1 site]”, the binding result in [1] (setting [14]) is listed as “no binding”.

For the sequence “TCGAGGCTGCCCTAAAATGTGTATTCCATGGAAATGTCTGCCCTTCTCTC (double strand) [competitor oligonucleotide (FAST-1 site, inferred)]”, in series [1] (setting [14]), the binding result is on record as “no binding”.

(Values after patent US20030207263.)
